Our source for the binding values is article PMC10959670.

These are yes or no findings as the source states them, for the method shown. Binding seen in cells or lysates may run through a third protein. Some entries that bind do so weakly or less than the wild type.

The target of the assay is CLEC12A (human) (UniProt Q5QGZ9). As to the kind of experiment: split reporter; HEK293T cells co-transfected with pcDNA3.4-CLEC12A-VN173 and pcDNA3.4-CLEC12A-VC155; confocal microscopy 24 h after transfection.

B1: CLEC12A (receptor, UniProt Q5QGZ9 1-265)
chain: MSEEVTYADLQFQNSSEMEKIPEIGKFGEKAPPAPSHVWRPAALFLTLLCLLLLIGLGVLASMFHVTLKIEMKKMNKLQNISEELQRNISLQLMSNMNISNKIRNLSTTLQTIATKLCRELYSKEQEHKCKPCPRRWIWHKDSCYFLSDDVQTWQESKMACAAQNASLLKINNKNALEFIKSQSRSYDYWLGLSPEEDSTRGMRVDNIINSSAWVIRNAPDLNNMYCGYINRLYVQYYHCTYKKRMICEKMANPVQLGSTYFREA
Take B1: the binding entry is reported as “binds”.
